Data published in paper PMC9820991, “Elucidating the Interaction between Pyridoxine 5′-Phosphate Oxidase and Dopa Decarboxylase: Activation of B6-Dependent Enzyme” (International Journal of Molecular Sciences, 2022).
These are yes or no findings as the source states them, for the method shown.

Columns and labels:
Test in all cases: SPR; Biacore T200, 25 °C; apoDDC, holoDDC and holoSHMT immobilised on a CM5 chip by amine coupling; analytes PNPO and albumin 100 to 1.5625 µM in PBS-P (10 mM phosphate pH 7.4, 140 mM NaCl, 3 mM KCl, 0.05% P20), 50 µL/min; both purified
[1] = target: T1, human dopa decarboxylase, holo form (human, UniProt P20711 1-480, PLP as internal aldimine on Lys303)
T1 construct: also called holoDDC; DDC; source: E. coli BL21(DE3)pLysS, purified (Histrap Ni2+ column, dialysis against PLP); not shown: His tag (from the Histrap column)
T1 sequence (looked up): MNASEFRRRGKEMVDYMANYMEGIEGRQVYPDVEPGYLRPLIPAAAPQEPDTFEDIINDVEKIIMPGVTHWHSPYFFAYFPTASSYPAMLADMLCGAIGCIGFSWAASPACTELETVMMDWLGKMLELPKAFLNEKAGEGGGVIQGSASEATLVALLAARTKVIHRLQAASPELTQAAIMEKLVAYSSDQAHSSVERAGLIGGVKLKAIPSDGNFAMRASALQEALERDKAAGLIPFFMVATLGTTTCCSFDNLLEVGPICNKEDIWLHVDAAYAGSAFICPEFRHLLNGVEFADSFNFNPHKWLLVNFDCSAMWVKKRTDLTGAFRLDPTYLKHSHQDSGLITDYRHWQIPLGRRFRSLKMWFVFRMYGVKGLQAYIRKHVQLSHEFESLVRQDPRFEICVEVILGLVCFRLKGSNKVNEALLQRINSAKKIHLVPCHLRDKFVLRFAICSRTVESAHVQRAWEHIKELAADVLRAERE

[2] = target: T2, serine hydroxymethyltransferase (rabbit cytoplasmic), holo form (rabbit) (UniProt P07511)
T2 sequence (chain, PLP cofactor (holo form), residue not stated): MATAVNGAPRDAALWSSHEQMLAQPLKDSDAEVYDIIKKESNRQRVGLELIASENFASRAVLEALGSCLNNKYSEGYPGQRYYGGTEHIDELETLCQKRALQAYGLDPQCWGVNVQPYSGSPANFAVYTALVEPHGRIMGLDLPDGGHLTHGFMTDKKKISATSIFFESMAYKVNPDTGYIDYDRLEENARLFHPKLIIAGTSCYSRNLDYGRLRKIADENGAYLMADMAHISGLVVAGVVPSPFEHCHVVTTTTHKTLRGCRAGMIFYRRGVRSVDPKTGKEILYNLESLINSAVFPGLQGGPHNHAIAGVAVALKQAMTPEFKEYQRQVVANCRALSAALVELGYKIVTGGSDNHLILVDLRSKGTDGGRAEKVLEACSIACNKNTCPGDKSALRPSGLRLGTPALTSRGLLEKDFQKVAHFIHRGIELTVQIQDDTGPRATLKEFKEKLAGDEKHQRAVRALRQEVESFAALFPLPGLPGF

[3] = target: T3, human dopa decarboxylase, apo form (human, UniProt P20711 1-480)
T3 construct: same chain as m2 without PLP; Made from holoDDC by removal of the cofactor; also called apoDDC; source: E. coli BL21(DE3)pLysS, purified (Histrap Ni2+ column); PLP removed with 5 mM hydroxylamine and dialysis; not shown: His tag (from the Histrap column)
T3 sequence (looked up): T1 sequence (looked up)

Measured: binding

albumin
no binding (tested: 100 μM): [1] | [2] | [3]
